# Measurements reported in US20250073277A1, “METHODS FOR OBTAINING CARDIOMYOGENIC PRECURSOR CELLS” (University of Miami, priority 2017, published 2025).
# At least one compound was matched to its structure with a doubt left.
# System: hiPSCs
# Test: Stimulation of hiPSC cardiac differentiation, NKX2.5 gene expression
# Format: cell-based, human
# Conditions: exposure to 1 μM Somatostatin together with 1 μM recombinant GHRH, days 5-7 of hiPSCs differentiation; p=0.0009
structure (smiles),measurement,value
C[C@H](N)C(=O)NCC(=O)N[C@H]1CSSC[C@@H](C(=O)O)NC(=O)[C@H](CO)NC(=O)[C@H]([C@@H](C)O)NC(=O)[C@H](Cc2ccccc2)NC(=O)[C@H]([C@@H](C)O)NC(=O)[C@H](CCCCN)NC(=O)[C@H](Cc2c[nH]c3ccccc23)NC(=O)[C@H](Cc2ccccc2)NC(=O)[C@H](Cc2ccccc2)NC(=O)[C@H](CC(N)=O)NC(=O)[C@H](CCCCN)NC1=O [Somatostatin],effect on GHRH-induced increase of NKX2.5 expression,abolished
